# Library screen at single concentrations

By UniProt entry, the sequences of proteins in these tests, tags left out. Residues count along the entry.
UniProt P9WPC5, whole entry: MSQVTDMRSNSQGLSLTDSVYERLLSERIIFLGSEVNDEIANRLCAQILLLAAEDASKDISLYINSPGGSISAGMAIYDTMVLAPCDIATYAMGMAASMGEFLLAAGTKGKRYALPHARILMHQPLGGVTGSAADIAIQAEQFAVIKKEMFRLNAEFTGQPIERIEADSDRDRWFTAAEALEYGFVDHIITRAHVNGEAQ
UniProt P9WPC3, whole entry partner: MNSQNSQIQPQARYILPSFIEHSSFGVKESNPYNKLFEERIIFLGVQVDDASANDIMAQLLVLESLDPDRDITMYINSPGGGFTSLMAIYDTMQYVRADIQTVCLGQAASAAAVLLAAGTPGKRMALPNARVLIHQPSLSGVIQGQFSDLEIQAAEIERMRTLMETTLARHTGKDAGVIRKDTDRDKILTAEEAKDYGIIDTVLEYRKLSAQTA
UniProt Q4DA54, 1-478: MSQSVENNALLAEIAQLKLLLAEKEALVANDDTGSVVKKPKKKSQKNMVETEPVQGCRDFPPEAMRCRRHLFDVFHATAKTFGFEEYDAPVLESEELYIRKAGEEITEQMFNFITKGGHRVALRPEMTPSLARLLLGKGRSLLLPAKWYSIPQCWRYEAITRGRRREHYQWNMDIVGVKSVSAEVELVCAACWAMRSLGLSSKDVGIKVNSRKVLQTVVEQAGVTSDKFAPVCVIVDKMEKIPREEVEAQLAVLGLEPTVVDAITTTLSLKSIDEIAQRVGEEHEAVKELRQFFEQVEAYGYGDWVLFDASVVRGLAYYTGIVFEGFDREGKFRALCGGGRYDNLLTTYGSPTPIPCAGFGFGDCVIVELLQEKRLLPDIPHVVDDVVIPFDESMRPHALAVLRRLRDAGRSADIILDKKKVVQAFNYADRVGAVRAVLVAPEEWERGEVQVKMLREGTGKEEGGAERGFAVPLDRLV
UniProt I6X8D2, whole entry: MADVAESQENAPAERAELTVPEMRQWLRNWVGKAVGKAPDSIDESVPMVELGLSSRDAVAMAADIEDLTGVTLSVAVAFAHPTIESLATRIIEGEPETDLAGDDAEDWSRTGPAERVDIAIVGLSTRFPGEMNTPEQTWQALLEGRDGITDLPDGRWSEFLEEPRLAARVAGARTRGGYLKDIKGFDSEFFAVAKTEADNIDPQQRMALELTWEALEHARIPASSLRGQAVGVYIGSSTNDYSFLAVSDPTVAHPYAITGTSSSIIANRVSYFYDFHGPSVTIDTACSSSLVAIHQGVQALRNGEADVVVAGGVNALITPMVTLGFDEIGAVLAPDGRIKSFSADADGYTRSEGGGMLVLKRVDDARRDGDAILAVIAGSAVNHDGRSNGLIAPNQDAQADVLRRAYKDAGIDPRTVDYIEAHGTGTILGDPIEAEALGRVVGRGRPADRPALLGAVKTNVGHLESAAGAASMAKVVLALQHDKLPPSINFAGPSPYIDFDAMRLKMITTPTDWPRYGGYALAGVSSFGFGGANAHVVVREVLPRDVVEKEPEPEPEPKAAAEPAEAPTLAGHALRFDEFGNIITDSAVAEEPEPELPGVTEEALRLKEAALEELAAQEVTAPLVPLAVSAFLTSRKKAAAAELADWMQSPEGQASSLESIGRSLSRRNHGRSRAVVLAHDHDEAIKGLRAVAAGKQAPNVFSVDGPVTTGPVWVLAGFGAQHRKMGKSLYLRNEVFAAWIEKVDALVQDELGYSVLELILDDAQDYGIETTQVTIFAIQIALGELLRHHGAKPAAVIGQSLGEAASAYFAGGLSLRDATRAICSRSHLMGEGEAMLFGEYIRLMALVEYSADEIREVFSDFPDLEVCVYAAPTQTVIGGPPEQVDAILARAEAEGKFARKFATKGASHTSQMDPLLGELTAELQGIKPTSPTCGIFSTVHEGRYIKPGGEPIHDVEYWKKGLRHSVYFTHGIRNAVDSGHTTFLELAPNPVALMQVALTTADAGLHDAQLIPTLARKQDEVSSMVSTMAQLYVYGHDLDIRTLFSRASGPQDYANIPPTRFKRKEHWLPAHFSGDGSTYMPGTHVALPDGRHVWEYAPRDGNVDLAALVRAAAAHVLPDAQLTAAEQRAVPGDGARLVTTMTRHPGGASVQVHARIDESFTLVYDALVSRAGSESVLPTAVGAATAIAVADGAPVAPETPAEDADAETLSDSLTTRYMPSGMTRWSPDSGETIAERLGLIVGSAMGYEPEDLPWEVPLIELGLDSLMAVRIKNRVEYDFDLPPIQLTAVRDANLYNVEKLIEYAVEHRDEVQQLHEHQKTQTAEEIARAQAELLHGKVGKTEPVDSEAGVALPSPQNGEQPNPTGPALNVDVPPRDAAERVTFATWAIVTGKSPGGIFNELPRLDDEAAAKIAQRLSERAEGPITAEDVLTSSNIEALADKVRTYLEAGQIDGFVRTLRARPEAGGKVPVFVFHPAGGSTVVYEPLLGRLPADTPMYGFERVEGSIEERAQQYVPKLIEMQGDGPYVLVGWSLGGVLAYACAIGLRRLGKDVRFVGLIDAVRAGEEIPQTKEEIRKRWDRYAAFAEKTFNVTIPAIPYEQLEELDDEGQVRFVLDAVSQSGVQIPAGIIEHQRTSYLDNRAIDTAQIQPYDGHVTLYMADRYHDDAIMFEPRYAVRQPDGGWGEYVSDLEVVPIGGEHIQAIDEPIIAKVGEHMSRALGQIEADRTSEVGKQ
UniProt Q8IDJ8, 1-583: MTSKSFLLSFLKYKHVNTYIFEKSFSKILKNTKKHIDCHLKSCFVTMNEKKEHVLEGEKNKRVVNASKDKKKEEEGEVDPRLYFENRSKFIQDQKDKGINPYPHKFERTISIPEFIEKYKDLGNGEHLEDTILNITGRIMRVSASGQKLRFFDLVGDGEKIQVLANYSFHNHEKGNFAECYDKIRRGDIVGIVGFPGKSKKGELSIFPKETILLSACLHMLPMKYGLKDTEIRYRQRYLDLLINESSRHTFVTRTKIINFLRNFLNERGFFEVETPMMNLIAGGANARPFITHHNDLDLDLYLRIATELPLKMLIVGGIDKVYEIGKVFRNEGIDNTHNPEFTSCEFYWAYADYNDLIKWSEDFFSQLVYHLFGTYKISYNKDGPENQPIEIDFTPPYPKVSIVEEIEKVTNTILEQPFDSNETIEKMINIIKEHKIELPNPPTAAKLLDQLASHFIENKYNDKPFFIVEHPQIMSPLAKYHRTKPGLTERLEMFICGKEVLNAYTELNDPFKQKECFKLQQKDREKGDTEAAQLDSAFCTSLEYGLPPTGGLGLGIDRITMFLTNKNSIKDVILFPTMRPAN

A: 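Protease assay of ClpP1P2, read by the AMC dye that it sets free. Target: ClpP1P2, Mycobacterium tuberculosis (UniProt P9WPC5 and UniProt P9WPC3). Concentration: 50 µM. Direction is inferred from only a few compounds that gave an IC50; most scored high, so higher reads as stronger inhibition. Most other retested compounds had strongly negative values. Of about 69,000 compounds tested this way, about 10 (0.015%) reached 50% or more in at least one test.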
B: 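Assay of Toxoplasma gondii numbers, read through their beta-galactosidase reporter with a colour substrate. Compounds at 10 µM. The record gives no direction; the compounds picked for IC50 retests had high values, so higher reads as fewer parasites. Of about 67,000 compounds tested this way, about 260 (0.38%) reached 50% or more in at least one test.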
C: 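Histidine-tRNA ligase, Trypanosoma cruzi CL Brener (UniProt Q4DA54). Enzyme assay of histidyl-tRNA synthetase; the read-out is not stated. Concentration: 30 µM. The record gives no direction; compounds that gave an IC50 in retests scored well above the rest, so higher reads as stronger inhibition. About 69,000 compounds were tested under these conditions; 0.045% (about 31) showed 50% or more at least once.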
D: 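Enzyme assay of the thioesterase domain of polyketide synthase 13; the read-out is not stated. Target: Polyketide synthase Pks13, Mycobacterium tuberculosis (UniProt I6X8D2). Compounds at 30 µM. The record gives no direction; the compounds picked for IC50 retests had high values, so higher reads as stronger inhibition. Of about 67,000 compounds tested this way, about 300 (0.46%) reached 50% or more in at least one test.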
E: 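Enzyme assay of the cytosolic lysyl-tRNA synthetase in 384-well plates, read by luminescence. Target: Lysine-tRNA ligase, Plasmodium falciparum 3D7 (UniProt Q8IDJ8). Tested at 30 µM. Higher reads as stronger inhibition, judged from the few compounds that gave an IC50. Of about 69,000 compounds tested this way, about 49 (0.071%) reached 50% or more in at least one test.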

Each number is a percent effect as filed. How 0% and 100% were set is not recorded. Most values in the screen are low, and negative values occur. This is an unselected part of the compounds tested. A dash means the value is not listed here; it may have been measured.

structure	A	B	C	D	E
CN1CCN(C[C@@H]2OC[C@H]3CN(Cc4cccc(F)c4)CC[C@H]32)CC1	4.237	-	3.784	1.27	-5.221
Cc1cc(CC(=O)N(C)Cc2cccc(OC(C)C)c2)n[nH]1	4.001	-0.4823	8.621	-2.536	2.511
O=C(O)C(F)(F)F.O=C(O)C(F)(F)F.[H][C@@]12CN(Cc3cccc(F)c3)C[C@]1([H])CN(c1ncc(F)cn1)C2	-	4.661	-	-	-
CN1CCOC(CN(C(=O)Cc2ccccc2F)c2nccs2)C1 (stereo not given)	-2.29	8.401	-3.448	-10.08	-16.39
c1ccc(-n2ccc(CN3CCOC(Cn4cncn4)C3)n2)cc1 (stereo not given)	-15.65	13.82	3.429	-2.532	-0.6051
CCc1nnc(CNC2CCCN(Cc3noc(C4CC4)n3)C2)o1 (stereo not given)	-56.66	-8.358	4.373	-8.401	-0.2303
Cc1nnc(C(C)N(C)Cc2c(C)nn(-c3ccccc3)c2C)o1 (stereo not given)	-10.34	-1.153	6.557	-8.942	3.122
N#Cc1c2n(c3c(=O)[nH]cnc13)CCCC2	-20.39	12.38	1.288	-10	0.9045
CC(COCC(F)(F)F)NC(=O)c1ccc(-c2ccco2)[nH]c1=O (stereo not given)	-51.31	-11.26	6.145	-35.06	2.968
Cc1ccoc1-c1nnc(CNC2CCCN(c3cccnn3)C2)o1 (stereo not given)	-3.566	-5.321	10.85	-8.336	-1.774
CC(Nc1ncnc2c1CCNCC2)c1nc2c(s1)CCCC2 (stereo not given)	-10.22	-3.885	4.972	-34.66	5.147
CN(C)C1COC2(CCN(C(=O)c3cccnc3)CC2)C1 (stereo not given)	-7.397	-16.72	5.825	-20.32	5.254
CC(C)NC(=O)Cn1cc(-c2ccccc2)ncc1=O	-26.12	-8.08	3.636	-18.25	0.2604
CS(=O)(=O)N1CCO[C@@H]2CCN(Cc3ccncc3)CC[C@H]21	-10.29	-	1.111	-3.001	1.493
COc1cccc(-c2nc3c([nH]2)CC(C)(C)CNC3=O)c1OC	-9.22	-3.215	3.867	-47.32	5.102
O=C(Nc1cccc(F)c1)N1CCC(CO)(Nc2ccccc2)CC1	3.075	10.26	13.4	-23.08	0.3201
CCS(=O)(=O)NC1CCCN(Cc2ccn(C)c(=O)c2)C1 (stereo not given)	-10.27	-4.315	4.211	-14.71	8.362
O=C(O)C(F)(F)F.[H][C@@]12CCN(Cc3ccc4c(c3)OCO4)C[C@]1(C(=O)NC)CCO2	-	-6.745	-	-	-
CCCN(Cc1cccnc1)C(=O)C1CCNC1 (stereo not given)	-1.334	-5.383	9.189	-23.93	0.7028
COCCCNC(=O)C(C)(C)N(C)C1CCCC1	0.9	5.26	3.933	-29.57	3.083
CNC(=O)C1(N2CCC[C@H]2C(=O)NC2CCCCC2)CCOCC1	-5.768	-	15.84	-0.4624	2.287
CN(C)c1ncnc2c1CCN(C(=O)c1sccc1S(N)(=O)=O)C2	-10.19	-0.2372	6.061	-12.01	11.17
Cc1cc(C2CCCN(C(=O)COc3cccc(F)c3)C2)n[nH]1 (stereo not given)	-12.2	4.071	1.01	-19.48	2.34
COCCN1CCc2ncnc(NC(C)C)c2CC1	-8.366	-	-1.105	-4.332	3.308
COCc1noc(C2(c3cccc(Cl)c3)CCOCC2)n1	7.813	2.402	-8.867	-14.51	-1.034
Cc1oc(-c2cc(F)cc(F)c2)nc1CN1C[C@@H](C)NC[C@@H]1C	-10.53	1.277	3.879	-38.43	8.984
CCO[C@H]1C[C@@H](O)C12CCN(C(=O)CN1CCCCCC1=O)CC2	-8.695	-4.539	-0.431	-10.84	4.758
COc1ccccc1C(=O)Nc1c(F)c(C(=O)NC2CCCC2)nn1C	-1.804	-12.98	8.911	-	4.37
CS(=O)(=O)NCC1CCCN(C(=O)CCCc2ccccc2)C1 (stereo not given)	-27.31	3.784	4.118	-20.14	0.6805
CC(C)c1noc(-c2ccc(NC(=O)NCC(O)C(C)C)cc2)n1 (stereo not given)	-7.19	-6.832	8.287	-26.6	9.224
COc1ccccc1N(C)S(=O)(=O)c1cc(C(=O)O)cs1	3.992	5.98	-1.064	11.02	5.944
CCn1ncc(-c2cc(C(F)(F)F)nc(N3CCC(N)CC3)n2)c1C	-7.301	74.85	5.699	2.27	9.17
O=C(NCC1CC1)c1cc(Br)cnc1N1CCCCC1	-7.299	-9.008	4.545	27.99	1.728
Cc1cccc(N2CCC3(CCCN(C(=O)c4cccnc4)C3)C2)n1 (stereo not given)	9.486	-	12	2.088	0.5534
O=C(NCc1cnc2n1CCN(Cc1ccsc1)CC2)C1CCC1.O=C(O)C(F)(F)F	-	7.602	-	-	-
COc1c(CNCc2ccc(C(=O)N(C)C(C)C)cc2)c(C)nn1C	-11.63	8.381	5.413	-6.47	-2.171
CC(C)CN1CCS(=O)(=O)[C@@H]2CCN(S(=O)(=O)C3CC3)CC[C@@H]21	6.156	-	1.075	-1.414	1.536
O=S(=O)(c1ccc2c(c1)CCC2)N1CCCC(Cn2cncn2)C1 (stereo not given)	-2.562	-2.801	1.053	-12.35	3.787
Cc1ccc(CN2CC[C@H]3CO[C@H](CN4CCN(C)CC4)[C@H]3C2)o1	-7.404	-	2.062	6.06	5.844
COCc1nnc(C(=O)N2CC(N3CCCCC3)C2)o1	-4.098	5.263	6.061	-4.99	6.101
Cc1cc2nc(C(C)C)cc(NCCc3cccn3C)n2n1	-7.296	-6.728	20.79	5.155	1.51

Once more, the final 3:

| structure | A | B | C | D | E |
|---|---|---|---|---|---|
| `Cc1ccc(CN2CC[C@H]3CO[C@H](CN4CCN(C)CC4)[C@H]3C2)o1` | -7.404 | - | 2.062 | 6.06 | 5.844 |
| `COCc1nnc(C(=O)N2CC(N3CCCCC3)C2)o1` | -4.098 | 5.263 | 6.061 | -4.99 | 6.101 |
| `Cc1cc2nc(C(C)C)cc(NCCc3cccn3C)n2n1` | -7.296 | -6.728 | 20.79 | 5.155 | 1.51 |

Data taken from ChEMBL document CHEMBL3988442, “University of Dundee, Small-Polar-MMV Screening Library” (2021).